No constants are given. Whether binding was seen depends on the method and setting. Binding seen in cells or lysates may run through a third protein. Some entries that bind do so weakly or less than the wild type. Sequences can lack the tags named with a protein.
T1: Rad50 (Saccharomyces cerevisiae) (UniProt P12753)
T1 sequence (looked up): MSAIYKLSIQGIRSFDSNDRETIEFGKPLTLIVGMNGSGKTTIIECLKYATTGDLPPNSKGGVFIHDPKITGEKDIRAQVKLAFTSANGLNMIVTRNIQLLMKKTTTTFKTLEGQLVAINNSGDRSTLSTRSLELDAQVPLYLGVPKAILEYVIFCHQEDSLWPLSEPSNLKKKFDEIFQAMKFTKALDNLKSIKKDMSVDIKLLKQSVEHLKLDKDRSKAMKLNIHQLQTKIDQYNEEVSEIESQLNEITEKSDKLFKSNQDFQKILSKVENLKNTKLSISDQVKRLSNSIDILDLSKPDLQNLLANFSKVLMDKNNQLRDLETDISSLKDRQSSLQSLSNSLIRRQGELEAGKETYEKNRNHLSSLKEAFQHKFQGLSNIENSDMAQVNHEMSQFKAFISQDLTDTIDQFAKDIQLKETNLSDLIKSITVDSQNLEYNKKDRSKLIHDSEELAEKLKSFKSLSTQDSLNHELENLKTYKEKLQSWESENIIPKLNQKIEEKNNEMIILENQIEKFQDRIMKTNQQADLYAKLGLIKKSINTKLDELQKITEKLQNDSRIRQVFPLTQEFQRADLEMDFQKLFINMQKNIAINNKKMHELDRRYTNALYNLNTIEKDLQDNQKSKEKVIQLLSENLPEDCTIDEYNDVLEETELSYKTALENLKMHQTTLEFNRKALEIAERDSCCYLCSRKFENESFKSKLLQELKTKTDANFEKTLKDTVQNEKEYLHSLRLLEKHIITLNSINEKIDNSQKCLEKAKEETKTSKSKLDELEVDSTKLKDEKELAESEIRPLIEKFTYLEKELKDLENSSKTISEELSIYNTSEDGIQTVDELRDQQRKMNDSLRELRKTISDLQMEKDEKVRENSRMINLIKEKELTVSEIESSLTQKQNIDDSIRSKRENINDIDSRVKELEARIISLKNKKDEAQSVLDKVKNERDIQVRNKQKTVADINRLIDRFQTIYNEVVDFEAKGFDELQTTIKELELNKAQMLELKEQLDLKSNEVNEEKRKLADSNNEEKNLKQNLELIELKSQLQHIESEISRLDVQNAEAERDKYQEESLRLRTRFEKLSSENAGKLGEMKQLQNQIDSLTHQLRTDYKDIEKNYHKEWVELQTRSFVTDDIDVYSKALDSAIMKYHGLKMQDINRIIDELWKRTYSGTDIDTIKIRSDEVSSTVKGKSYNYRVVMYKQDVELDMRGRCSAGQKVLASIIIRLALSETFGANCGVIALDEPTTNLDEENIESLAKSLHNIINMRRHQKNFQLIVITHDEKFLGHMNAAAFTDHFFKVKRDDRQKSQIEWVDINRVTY

T2: Mre11 (Saccharomyces cerevisiae) (UniProt P32829)
T2 sequence (looked up): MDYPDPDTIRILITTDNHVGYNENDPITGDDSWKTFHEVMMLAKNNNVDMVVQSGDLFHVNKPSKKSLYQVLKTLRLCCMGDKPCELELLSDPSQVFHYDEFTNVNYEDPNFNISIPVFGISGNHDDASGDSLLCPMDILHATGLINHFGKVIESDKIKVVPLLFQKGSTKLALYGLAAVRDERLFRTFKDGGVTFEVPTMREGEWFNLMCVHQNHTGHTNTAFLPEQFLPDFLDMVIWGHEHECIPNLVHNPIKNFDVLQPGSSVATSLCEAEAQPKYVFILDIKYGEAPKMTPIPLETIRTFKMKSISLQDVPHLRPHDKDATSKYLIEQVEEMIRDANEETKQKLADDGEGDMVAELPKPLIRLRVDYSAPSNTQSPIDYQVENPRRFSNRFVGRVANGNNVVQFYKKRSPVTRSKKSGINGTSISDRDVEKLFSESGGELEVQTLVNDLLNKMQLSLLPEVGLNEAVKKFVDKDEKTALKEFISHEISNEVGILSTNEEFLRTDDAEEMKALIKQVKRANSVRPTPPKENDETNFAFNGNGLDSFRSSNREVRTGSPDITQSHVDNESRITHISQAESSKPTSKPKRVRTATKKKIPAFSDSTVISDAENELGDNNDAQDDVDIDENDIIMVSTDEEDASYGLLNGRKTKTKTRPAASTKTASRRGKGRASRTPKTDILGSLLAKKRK

T3: Rfc1 (Saccharomyces cerevisiae) (UniProt P38630)
T3 sequence (looked up): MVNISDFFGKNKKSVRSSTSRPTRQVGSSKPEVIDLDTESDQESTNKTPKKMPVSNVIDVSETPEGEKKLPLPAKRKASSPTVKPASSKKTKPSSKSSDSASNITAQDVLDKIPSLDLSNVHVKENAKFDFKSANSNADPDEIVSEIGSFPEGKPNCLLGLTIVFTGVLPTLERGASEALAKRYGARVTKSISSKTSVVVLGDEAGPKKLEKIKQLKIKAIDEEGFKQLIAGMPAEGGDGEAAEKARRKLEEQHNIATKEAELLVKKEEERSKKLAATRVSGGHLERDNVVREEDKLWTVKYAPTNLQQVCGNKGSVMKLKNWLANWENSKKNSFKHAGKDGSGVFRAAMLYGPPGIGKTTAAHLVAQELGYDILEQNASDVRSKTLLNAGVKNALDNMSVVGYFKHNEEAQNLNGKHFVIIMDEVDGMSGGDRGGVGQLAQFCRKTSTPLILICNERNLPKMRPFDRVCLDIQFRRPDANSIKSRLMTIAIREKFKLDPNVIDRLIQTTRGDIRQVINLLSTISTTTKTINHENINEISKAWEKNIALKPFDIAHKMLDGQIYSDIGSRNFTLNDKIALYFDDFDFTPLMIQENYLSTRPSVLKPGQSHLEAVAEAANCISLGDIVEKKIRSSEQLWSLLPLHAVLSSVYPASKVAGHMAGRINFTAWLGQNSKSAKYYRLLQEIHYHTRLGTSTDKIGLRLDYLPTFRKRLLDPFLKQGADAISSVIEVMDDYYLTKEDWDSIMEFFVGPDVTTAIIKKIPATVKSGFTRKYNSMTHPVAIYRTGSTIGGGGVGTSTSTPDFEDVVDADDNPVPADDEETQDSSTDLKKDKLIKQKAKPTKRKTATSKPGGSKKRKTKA

T4: Rfc2 (Saccharomyces cerevisiae) (UniProt P40348)
T4 sequence (looked up): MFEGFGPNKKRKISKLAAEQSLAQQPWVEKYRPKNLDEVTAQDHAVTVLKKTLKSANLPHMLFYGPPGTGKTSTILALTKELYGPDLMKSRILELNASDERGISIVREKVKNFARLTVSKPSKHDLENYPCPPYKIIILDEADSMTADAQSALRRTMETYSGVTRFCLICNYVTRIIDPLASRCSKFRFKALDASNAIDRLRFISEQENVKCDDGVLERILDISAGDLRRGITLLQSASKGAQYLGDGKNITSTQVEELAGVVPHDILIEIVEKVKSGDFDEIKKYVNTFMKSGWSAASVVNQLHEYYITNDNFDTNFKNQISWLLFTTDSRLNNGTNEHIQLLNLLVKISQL


Columns and labels:
[1] = biological target: T1, Rad50 (Saccharomyces cerevisiae); assay: anti-FLAG co-IP, LC-MS/MS
[2] = biological target: T2, Mre11 (Saccharomyces cerevisiae); assay: anti-FLAG co-IP, LC-MS/MS
[3] = biological target: T2, Mre11 (Saccharomyces cerevisiae); assay: anti-FLAG co-IP, LC-MS/MS; pair by Table 2
[4] = biological target: T3, Rfc1 (Saccharomyces cerevisiae); assay: anti-FLAG co-IP, LC-MS/MS
[5] = biological target: T4, Rfc2 (Saccharomyces cerevisiae); assay: anti-FLAG co-IP, LC-MS/MS
[6] = biological target: T3, Rfc1 (Saccharomyces cerevisiae); assay: anti-FLAG co-IP, LC-MS/MS; pair by Table 2

binding [1]	binding [2]	binding [3]	binding [4]	binding [5]	binding [6]	Binder
binds	binds	binds	–	–	–	Xrs2 (protein, Saccharomyces cerevisiae, UniProt P33301 1-854, looked up) MWVVRYQNTLEDGSISFISCCLQAFKTYSIGRSSKNPLIIKNDKSISRQHITFKWEINNSSDLKHSSLCLVNKGKLTSLNKKFMKVGETFTINASDVLKSTIIELGTTPIRIEFEWINEVWNIPPHLTQFRTMLSEYGISTEISINDIPANLMISDYPKSEDNSIRELYALVSTIPMKKSRFLMELCNTLLPTSKTNLKFDEMWNDMISNPEYNVFDFDPNILLSKFMRLNNIRVLTTIKSEPRLSSLLRTFNINLFAFDNIDSLYKYVDSLEASTEYLILTTTDKKENGKILCTIKTMLTSIIDGTLSAVINMKGASSRTLDNGKFDQISEGMSTILKTSRAPEVEASPVVSKKRKLNRRRVLPLDSLDFFAGGLSTKTLSENRSLTDAKRLNCGAESKTVISSPNIAEADEKHAPFLQNALKPTEDIGKKSGHSSPGAIIVSSPNLGTVNTSEDSLDKSLQSHKLPQPSLPEVAGIGSQTISSNSADYETAAVNSMDDAEVTKNFRVNHHQNIEQPSKNIRKLSNYSREISSPLQENCKSPVKELSIKEKSGTPHAFVEAIQETKNREVKRVKSTIVELKDEELSEEAINQLKNLAIVEPSNNLLRKSFDSEGNKTSRTTEKWENSLMEPEWHKRKNFKTFVKVRPKSKAHKEEGKNNTQSSDFIRNAAFLITRNYVPLKKYSKKDTTTKWGTEENEDMFALTEMERFGSNTFMSDNINSNTIQKRSQALNRFTNEDSSNEGEEDSFSFSRCSGTAASVQPLKNKIFITDEDDLGDIDDKSDRLNHRENNRNLFVVKEMNLRPNLSEECSKQSRHSRSATSRSRGSFGASNNGDGDDDDDDGPKFTFKRRKG
–	–	–	binds	binds	binds	Rfc4 (protein, Saccharomyces cerevisiae, UniProt P40339 1-323, looked up) MSKTLSLQLPWVEKYRPQVLSDIVGNKETIDRLQQIAKDGNMPHMIISGMPGIGKTTSVHCLAHELLGRSYADGVLELNASDDRGIDVVRNQIKHFAQKKLHLPPGKHKIVILDEADSMTAGAQQALRRTMELYSNSTRFAFACNQSNKIIEPLQSRCAILRYSKLSDEDVLKRLLQIIKLEDVKYTNDGLEAIIFTAEGDMRQAINNLQSTVAGHGLVNADNVFKIVDSPHPLIVKKMLLASNLEDSIQILRTDLWKKGYSSIDIVTTSFRVTKNLAQVKESVRLEMIKEIGLTHMRILEGVGTYLQLASMLAKIHKLNNKA

From patent publication US20030162221A1
